Source: article PMC12259948
These are yes or no findings as the source states them, for the method shown. Binding seen in cells or lysates may run through a third protein. Some binding calls cover weakened binding; strength is not graded here.

Sequences of proteins named here, by UniProt entry; tags and fusion partners are left off.
UniProt O15550: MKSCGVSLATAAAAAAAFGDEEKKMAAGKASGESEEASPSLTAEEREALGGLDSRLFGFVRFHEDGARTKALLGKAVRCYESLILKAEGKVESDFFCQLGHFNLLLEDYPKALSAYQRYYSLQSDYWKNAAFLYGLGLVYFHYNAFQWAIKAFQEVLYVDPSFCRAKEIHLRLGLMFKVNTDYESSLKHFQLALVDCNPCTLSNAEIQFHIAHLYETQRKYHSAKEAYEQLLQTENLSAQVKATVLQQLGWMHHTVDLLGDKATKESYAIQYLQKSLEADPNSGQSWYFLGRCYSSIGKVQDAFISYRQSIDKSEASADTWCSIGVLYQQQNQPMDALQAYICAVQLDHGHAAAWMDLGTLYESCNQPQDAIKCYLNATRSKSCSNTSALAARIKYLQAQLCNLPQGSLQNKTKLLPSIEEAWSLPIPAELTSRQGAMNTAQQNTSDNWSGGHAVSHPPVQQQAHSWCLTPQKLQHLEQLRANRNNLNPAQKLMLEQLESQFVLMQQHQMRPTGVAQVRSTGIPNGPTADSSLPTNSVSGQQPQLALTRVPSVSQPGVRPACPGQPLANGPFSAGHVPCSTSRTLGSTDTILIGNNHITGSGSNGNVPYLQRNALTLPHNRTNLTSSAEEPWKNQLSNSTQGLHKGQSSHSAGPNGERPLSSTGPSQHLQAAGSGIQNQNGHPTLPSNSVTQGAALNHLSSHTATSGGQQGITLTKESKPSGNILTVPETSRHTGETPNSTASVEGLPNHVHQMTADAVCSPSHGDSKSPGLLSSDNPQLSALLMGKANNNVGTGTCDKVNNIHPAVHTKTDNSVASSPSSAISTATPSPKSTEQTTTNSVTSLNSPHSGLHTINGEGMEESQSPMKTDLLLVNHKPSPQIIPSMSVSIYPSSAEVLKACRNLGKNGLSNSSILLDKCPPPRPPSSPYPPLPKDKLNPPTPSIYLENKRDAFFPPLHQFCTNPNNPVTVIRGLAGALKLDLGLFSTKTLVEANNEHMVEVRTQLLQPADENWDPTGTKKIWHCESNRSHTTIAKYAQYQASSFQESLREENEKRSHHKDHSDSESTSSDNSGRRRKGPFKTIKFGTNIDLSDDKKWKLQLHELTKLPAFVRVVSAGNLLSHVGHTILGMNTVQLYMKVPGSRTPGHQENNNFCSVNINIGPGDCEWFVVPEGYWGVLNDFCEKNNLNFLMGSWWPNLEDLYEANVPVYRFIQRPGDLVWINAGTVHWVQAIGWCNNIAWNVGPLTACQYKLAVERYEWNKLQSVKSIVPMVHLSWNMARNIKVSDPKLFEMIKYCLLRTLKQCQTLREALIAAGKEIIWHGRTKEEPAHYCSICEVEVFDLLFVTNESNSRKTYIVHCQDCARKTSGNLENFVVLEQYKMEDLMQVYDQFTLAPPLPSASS
UniProt Q96RN5: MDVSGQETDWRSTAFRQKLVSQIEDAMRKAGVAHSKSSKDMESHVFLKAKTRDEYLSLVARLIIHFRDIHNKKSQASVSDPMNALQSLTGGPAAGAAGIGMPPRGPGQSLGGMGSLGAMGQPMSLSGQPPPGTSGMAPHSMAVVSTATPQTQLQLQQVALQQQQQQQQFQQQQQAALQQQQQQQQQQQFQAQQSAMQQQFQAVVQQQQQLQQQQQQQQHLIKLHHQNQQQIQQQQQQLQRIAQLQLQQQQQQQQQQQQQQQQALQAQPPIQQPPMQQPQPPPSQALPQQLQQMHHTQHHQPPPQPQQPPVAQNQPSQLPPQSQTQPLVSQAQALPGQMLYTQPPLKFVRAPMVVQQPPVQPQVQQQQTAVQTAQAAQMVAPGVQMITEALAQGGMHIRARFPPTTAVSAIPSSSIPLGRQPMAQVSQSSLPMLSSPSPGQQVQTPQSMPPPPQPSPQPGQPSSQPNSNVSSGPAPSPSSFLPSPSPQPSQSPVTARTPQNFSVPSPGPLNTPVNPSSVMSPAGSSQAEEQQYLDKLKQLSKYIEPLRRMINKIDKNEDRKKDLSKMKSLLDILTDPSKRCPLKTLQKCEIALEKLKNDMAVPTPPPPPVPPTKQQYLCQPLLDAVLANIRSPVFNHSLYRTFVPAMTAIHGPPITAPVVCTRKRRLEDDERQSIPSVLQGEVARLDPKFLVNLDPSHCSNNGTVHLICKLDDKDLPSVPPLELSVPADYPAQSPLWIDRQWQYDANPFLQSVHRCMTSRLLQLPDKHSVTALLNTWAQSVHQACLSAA
UniProt Q09472: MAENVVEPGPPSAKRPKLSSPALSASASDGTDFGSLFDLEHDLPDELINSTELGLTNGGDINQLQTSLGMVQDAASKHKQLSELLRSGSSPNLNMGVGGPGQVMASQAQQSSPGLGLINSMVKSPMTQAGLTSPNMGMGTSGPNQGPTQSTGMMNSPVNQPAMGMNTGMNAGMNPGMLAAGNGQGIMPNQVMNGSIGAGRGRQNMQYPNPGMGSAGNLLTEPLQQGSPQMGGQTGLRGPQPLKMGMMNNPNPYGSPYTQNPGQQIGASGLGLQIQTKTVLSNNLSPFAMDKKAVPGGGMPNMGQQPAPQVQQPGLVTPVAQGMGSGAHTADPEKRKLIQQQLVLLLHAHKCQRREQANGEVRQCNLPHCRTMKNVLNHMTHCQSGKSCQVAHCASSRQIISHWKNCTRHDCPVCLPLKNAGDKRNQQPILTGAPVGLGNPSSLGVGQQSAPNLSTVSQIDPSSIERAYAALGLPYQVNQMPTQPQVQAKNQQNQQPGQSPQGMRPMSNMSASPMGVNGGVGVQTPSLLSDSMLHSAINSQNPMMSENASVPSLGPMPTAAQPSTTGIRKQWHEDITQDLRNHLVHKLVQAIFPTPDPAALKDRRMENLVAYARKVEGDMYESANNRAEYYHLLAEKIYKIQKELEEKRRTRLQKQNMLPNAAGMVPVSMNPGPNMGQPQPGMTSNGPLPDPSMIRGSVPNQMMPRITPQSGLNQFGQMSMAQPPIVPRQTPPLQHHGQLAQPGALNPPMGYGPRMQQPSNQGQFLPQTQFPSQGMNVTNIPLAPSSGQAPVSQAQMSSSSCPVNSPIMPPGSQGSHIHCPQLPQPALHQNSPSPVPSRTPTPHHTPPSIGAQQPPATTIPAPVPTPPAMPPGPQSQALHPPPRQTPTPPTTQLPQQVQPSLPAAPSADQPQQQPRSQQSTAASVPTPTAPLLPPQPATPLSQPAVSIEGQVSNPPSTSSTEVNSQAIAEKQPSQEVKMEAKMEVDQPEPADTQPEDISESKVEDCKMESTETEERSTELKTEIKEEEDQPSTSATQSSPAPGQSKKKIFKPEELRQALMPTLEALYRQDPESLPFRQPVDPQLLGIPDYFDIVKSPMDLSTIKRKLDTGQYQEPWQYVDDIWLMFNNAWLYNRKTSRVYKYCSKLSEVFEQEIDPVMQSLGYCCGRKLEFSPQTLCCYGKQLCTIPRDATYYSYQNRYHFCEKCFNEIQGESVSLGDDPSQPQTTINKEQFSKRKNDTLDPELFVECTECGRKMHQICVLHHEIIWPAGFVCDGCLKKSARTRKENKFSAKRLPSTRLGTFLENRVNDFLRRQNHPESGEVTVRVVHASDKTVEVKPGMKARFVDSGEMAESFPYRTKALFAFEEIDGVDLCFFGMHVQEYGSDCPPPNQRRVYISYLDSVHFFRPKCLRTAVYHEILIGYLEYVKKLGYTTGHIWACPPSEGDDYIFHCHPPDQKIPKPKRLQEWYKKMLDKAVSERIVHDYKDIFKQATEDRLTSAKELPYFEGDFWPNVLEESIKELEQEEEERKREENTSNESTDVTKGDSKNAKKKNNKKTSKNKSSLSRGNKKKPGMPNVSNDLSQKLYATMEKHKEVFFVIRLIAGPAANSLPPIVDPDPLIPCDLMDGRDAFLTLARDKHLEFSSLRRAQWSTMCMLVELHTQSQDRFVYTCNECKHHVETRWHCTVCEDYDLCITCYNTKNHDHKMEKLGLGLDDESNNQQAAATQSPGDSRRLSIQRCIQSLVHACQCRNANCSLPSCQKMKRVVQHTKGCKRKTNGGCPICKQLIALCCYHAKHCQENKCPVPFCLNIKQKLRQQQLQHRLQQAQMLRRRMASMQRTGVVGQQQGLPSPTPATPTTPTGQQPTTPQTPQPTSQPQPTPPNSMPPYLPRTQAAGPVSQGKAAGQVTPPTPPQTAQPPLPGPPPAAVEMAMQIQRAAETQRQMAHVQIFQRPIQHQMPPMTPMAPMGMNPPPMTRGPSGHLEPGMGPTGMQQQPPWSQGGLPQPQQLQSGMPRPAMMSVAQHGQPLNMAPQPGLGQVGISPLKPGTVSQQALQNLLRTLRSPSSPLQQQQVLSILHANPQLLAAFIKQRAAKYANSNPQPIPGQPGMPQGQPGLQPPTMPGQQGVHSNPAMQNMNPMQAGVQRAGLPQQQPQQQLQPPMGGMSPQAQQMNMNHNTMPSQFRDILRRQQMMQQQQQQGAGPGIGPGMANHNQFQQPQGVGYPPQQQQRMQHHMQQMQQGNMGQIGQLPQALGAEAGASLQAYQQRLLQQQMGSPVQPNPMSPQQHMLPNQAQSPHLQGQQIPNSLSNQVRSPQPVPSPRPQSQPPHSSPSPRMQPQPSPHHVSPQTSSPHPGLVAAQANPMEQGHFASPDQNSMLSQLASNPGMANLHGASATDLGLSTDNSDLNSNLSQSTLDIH

Target: KDM6A (UniProt O15550)
Experiment: co-IP; immunoprecipitation with pol II, Med1, KDM6A antibodies or nonspecific IgG, protocol of Cell Signaling Technology; SDS-PAGE, silver staining and western blotting; cells not named

| binding | Substance |
| --- | --- |
| binds | Med15 (from UniProt Q96RN5 1-788) |
| binds | p300 (from UniProt Q09472 1-2414) |
